Results deposited as PubChem BioAssay AID504786 (Drosophila RNAi Screening Center, 2011).

Aim: 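Fly genes required for HIF-dependent transcription when hypoxia is mimicked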 (primary screen)
Cells: Drosophila S2 cells with a stable HIF luciferase reporter
Reagent: long dsRNA against Drosophila genes, about 0.2 µg dsRNA per well of a 384-well plate
Timing: three days of knock-down, then 20 h of DFO before reading
Challenge: desferrioxamine (DFO) at 100 µM, an iron chelator that mimics hypoxia, for 20 h
Measurement: 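HIF reporter luminescence in cells given 100 µM DFO for 20 h, using the mouse ldh-a hypoxia-response element, scored as per-plate z-scores; higher means greater loss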
Reading the numbers: z-score: higher = stronger loss of HIF reporter signal
In all, the deposit lists about 21,000 reagents; below is a random part of those that have a named target and a result. 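Primary screen; positive scores mean lost reporter signal, so the sign may be inverted from the usual convention.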 The numbers tell different reagents against one gene apart. A plus sign joins genes that one reagent is predicted to hit. Reagent sequences are not shown.

gene | reagent | z-score, replicate 1 | z-score, replicate 2 | z-score, replicate 3 | z-score, replicate 4
CG34370 | 1 | -0.6 | -0.1 | – | –
CG34370 | 2 | -0.2 | -0.5 | – | –
CG34370 | 3 | -0.3 | -0.4 | – | –
CG34370 | 4 | -0.2 | -0.5 | – | –
CG17770 + Acam | 1 | -0.3 | -0.8 | – | –
CG17770 + Acam | 2 | -0.3 | -0.4 | – | –
MAPk-Ak2 (MAP kinase activated protein-kinase-2) | 1 | 0 | 0.2 | – | –
CG14400 | 1 | -0.3 | -0.8 | – | –
Osi5 (Osiris 5) | 1 | -0.1 | -0.4 | – | –
Mabi (Mabiki) | 1 | -0.4 | -0.4 | – | –
CG14589 | 1 | -0.1 | -0.3 | – | –
CG32106 | 1 | 0.1 | -0.1 | – | –
pit (pitchoune) | 1 | 0 | -0.4 | – | –
GNBP3 (Gram-negative bacteria binding protein 3) | 1 | -0.4 | -0.1 | – | –
epsilonTry (epsilonTrypsin) | 1 | -0.1 | 0.8 | – | –
Polr2B (RNA polymerase II subunit B) | 1 | 3 | 3.3 | – | –
CG10467 | 1 | -0.4 | 0.4 | – | –
DIP-iota (Dpr-interacting protein iota) | 1 | -0.3 | -0.4 | – | –
Chd3 | 1 | -0.2 | -0.3 | – | –
CG5292 | 1 | -0.4 | 2.4 | – | –
Alg2 (ALG2, alpha-1,3/1,6-mannosyltransferase) | 1 | -0.2 | 0.1 | – | –
per (period) | 1 | -0.3 | -0.4 | – | –
CG3473 | 1 | -0.2 | -0.4 | – | –
CG4364 | 1 | -0.4 | 0.5 | – | –
CR42745 (retired record) | 1 | -0.3 | -0.3 | – | –
CG6479 | 1 | -0.1 | 0 | – | –
Vha100-3 (Vacuolar H[+] ATPase 100kD subunit 3) | 1 | 0.6 | -0.1 | – | –
blow (blown fuse) | 1 | 0.1 | 0.2 | – | –
tw (twisted) | 1 | -0.2 | -0.9 | – | –
CG34002 | 1 | 0.1 | -0.5 | 0 | 0
CG34002 | 2 | -0.4 | -0.3 | – | –
KLHL18 (Kelch like family member 18) | 1 | -0.3 | -0.5 | – | –
CG3036 | 1 | -0.1 | -0.3 | – | –
CG3036 | 2 | -0.3 | -0.1 | – | –
CG18675 | 1 | -0.2 | 0.2 | – | –
Sid (Stress induced DNase) | 1 | -0.3 | -0.5 | – | –
Caf1-55 (Chromatin assembly factor 1, p55 subunit) | 1 | -0.5 | -1.1 | – | –
obst-E (obstructor-E) | 1 | -0.3 | 0.5 | – | –
CG42784 | 1 | -0.3 | -0.4 | – | –
CG42784 | 2 | 0.3 | 2.9 | – | –
CG11398 | 1 | -0.4 | 0.3 | – | –
sotv + CG10731 | 1 | -0.2 | -0.4 | – | –
sotv + CG10731 | 2 | -0.3 | -0.3 | – | –
CG10098 | 1 | -0.4 | -0.2 | – | –
Fer3HCH (Ferritin 3 heavy chain homologue) | 1 | -0.3 | -1.1 | – | –
CG42758 | 1 | -0.3 | 0.3 | – | –
boss (bride of sevenless) | 1 | -0.5 | -0.8 | – | –
CG4646 | 1 | -0.2 | -0.2 | – | –
Cdk4 (Cyclin-dependent kinase 4) | 1 | -0.1 | -0.1 | – | –
BBS9 (Bardet-Biedl syndrome 9) | 1 | -0.3 | -0.3 | – | –
Pvf3 (PDGF- and VEGF-related factor 3) | 1 | -0.2 | 0.2 | – | –
Pvf3 (PDGF- and VEGF-related factor 3) | 2 | -0.1 | -0.2 | – | –
Pvf3 (PDGF- and VEGF-related factor 3) | 3 | -0.2 | 0.1 | – | –
Pvf3 (PDGF- and VEGF-related factor 3) | 4 | -0.2 | -0.3 | – | –
CG30159 | 1 | -0.3 | -0.5 | – | –
CG31446 | 1 | -0.2 | 0.2 | – | –
CG5860 | 1 | -0.3 | 0.3 | – | –
CG5440 | 1 | -0.5 | 0.9 | – | –
Sec22 (Secretory 22) | 1 | -0.3 | -0.4 | – | –
mus304 (mutagen-sensitive 304) | 1 | -0.3 | 1.2 | – | –
CG9717 | 1 | -0.2 | -0.1 | – | –
CG9330 | 1 | -0.3 | -0.4 | – | –
LManIV (Lysosomal alpha-mannosidase IV) | 1 | -0.3 | -0.3 | – | –
CG11095 | 1 | -0.2 | -0.5 | – | –
RpL18 (Ribosomal protein L18) | 1 | -0.1 | 0.2 | 5.1 | 9.9
CG7352 | 1 | -0.4 | -0.5 | – | –
CG8043 | 1 | -0.4 | -0.1 | – | –
CG3735 | 1 | -0.2 | 0.9 | – | –
CG13005 | 1 | 0 | -0.4 | – | –
CG43367 | 1 | -0.4 | -0.5 | – | –
CG43367 | 2 | -0.3 | -0.6 | – | –
CG43367 | 3 | -0.2 | 0 | – | –
robl (roadblock) | 1 | -0.4 | -0.3 | – | –
Tm2 (Tropomyosin 2) | 1 | -0.3 | -0.1 | – | –
Nrt (Neurotactin) | 1 | -0.3 | -0.5 | – | –
Lkb1 (Lkb1 kinase) | 1 | -0.4 | -0.6 | – | –
stas (Stasimon) | 1 | -0.3 | 0.4 | – | –
CG32085 | 1 | 0 | -0.4 | – | –
CG32085 | 2 | -0.2 | -0.5 | – | –
CG32085 | 3 | -0.1 | -0.4 | – | –
Dscam1 (Down syndrome cell adhesion molecule 1) | 1 | -0.2 | -0.1 | – | –
Dscam1 (Down syndrome cell adhesion molecule 1) | 2 | -0.1 | -0.1 | – | –
Dscam1 (Down syndrome cell adhesion molecule 1) | 3 | -0.2 | -0.3 | – | –

Copied from above (9 entries):
gene | reagent | z-score, replicate 1 | z-score, replicate 2 | z-score, replicate 3 | z-score, replicate 4
Pvf3 (PDGF- and VEGF-related factor 3) | 4 | -0.2 | -0.3 | – | –
CG30159 | 1 | -0.3 | -0.5 | – | –
CG31446 | 1 | -0.2 | 0.2 | – | –
CG5860 | 1 | -0.3 | 0.3 | – | –
CG5440 | 1 | -0.5 | 0.9 | – | –
Sec22 (Secretory 22) | 1 | -0.3 | -0.4 | – | –
mus304 (mutagen-sensitive 304) | 1 | -0.3 | 1.2 | – | –
CG9717 | 1 | -0.2 | -0.1 | – | –
CG9330 | 1 | -0.3 | -0.4 | – | –
